Assay results as given in publication doi:10.1101/2023.06.09.544244.
These are yes or no findings as the source states them, for the method shown. Some binding calls cover weakened binding; strength is not graded here.

Sequences of proteins named here, by UniProt entry; tags and fusion partners are left off. A change or cut given only in a name is not applied to a line headed by its entry.
UniProt P06223, whole entry, looked up, stated change not applied: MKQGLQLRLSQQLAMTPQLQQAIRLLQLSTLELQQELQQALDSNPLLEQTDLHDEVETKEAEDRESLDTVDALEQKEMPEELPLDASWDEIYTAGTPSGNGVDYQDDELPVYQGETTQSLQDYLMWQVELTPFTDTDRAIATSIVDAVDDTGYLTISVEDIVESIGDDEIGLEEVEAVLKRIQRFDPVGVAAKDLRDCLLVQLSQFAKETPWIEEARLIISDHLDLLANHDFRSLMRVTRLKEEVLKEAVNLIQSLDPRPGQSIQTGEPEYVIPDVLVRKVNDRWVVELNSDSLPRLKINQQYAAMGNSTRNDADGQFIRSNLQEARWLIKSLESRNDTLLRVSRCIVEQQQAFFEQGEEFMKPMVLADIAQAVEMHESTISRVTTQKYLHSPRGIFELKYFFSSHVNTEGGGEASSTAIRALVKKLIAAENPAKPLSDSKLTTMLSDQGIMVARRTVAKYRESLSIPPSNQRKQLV

Assays:
[1] = target: RNAP β' subunit (UniProt P0A8T7); test: cryo-EM structure
[2] = target: RNAP β subunit (UniProt P0A8V2); test: cryo-EM structure

σ^54 R336A bypass mutant (from UniProt P06223 1-477)
binding [1]: binds | binding [2]: binds
